From patent US10457666B2, “Stable crystal form of tipiracil hydrochloride and crystallization method for the same” (TAIHO PHARMACEUTICAL CO., LTD., priority 2013, dated 2019)

Assay: Residual ethanol in crystals by 1H-NMR
Type: physicochemical
Conditions: 1H-NMR (DMSO-d6, TMS); ICH reference value 5000 ppm; hydrochloride
Experimental: (1) First, 100 mL of 6 N hydrochloric acid and 220 mL of water were mixed, and 95.1 g of tipiracil obtained in accordance with the method described in WO 96/30346 was dissolved therein with heating. The solution was hot filtered at a temperature of around 60° C. and then 1280 mL of ethanol was added thereto. The mixture was maintained at a temperature of around 60° C. for 2 hours by heating and was cooled with ice. The resulting crystals were separated by filtration, and thus 89.3 g of anhydrous Crystal I of tipiracil hydrochloride was obtained (recovery rate: 82%). […] (2) Tipiracil hydrochloride obtained in accordance with the method described in WO 96/30346 was dissolved in water with heating. The solution was hot filtered at a temperature of around 60° C. and then ethanol and the seed crystal (Crystal I) obtained in the above (1) were added thereto. The mixture was maintained at a temperature of around 60° C. for 2 hours by heating. The resulting crystals were separated by filtration, and thus anhydrous Crystal I of tipiracil hydrochloride was obtained. […] Moreover, the results of TG/DTA show an endothermic peak at a temperature of 262.2° C.
(1) In 20 mL of 6 N hydrochloric acid and 230 mL of water, 22.0 g of tipiracil 1 obtained in accordance with the method described in WO 96/30346 was dissolved. The solution was filtered and then concentrated, and 100 mL, of ethanol was added thereto at room temperature. The resulting crystals were separated by filtration, and thus 19.7 g of Crystal III of tipiracil hydrochloride was obtained (recovery rate: 78%). […] This value exceeds the reference value (5000 ppm) for ethanol described in the Guideline for Residual Solvents in ICH guidelines. (2) Tipiracil obtained in accordance with the method described in WO 96/30346 was dissolved in ethanol and concentrated hydrochloric acid was added thereto. The mixture was stirred at a temperature of 64° C. for 1 hour and was cooled to a temperature of 30° C. The resulting crystals were separated by filtration and washed with methanol, and thus Crystal III of tipiracil hydrochloride was obtained. […]

Cl.N=C1CCCN1Cc1[nH]c(=O)[nH]c(=O)c1Cl [Crystal III, 5-chloro-6-(2-iminopyrrolidin-1-yl)methyl-2,4(1H,3H)-pyrimidinedione hydrochloride]
amount of residual ethanol contained in the crystals: 16000 ppm

Cl.N=C1CCCN1Cc1[nH]c(=O)[nH]c(=O)c1Cl [Crystal I, 5-chloro-6-(2-iminopyrrolidin-1-yl)methyl-2,4(1H,3H)-pyrimidinedione hydrochloride]
amount of residual ethanol contained in the crystals: < 5000 ppm

Cl.N=C1CCCN1Cc1[nH]c(=O)[nH]c(=O)c1Cl [Crystal II, 5-chloro-6-(2-iminopyrrolidin-1-yl)methyl-2,4(1H,3H)-pyrimidinedione hydrochloride]
amount of residual ethanol contained in the crystals: < 5000 ppm
